Results reported in PubChem BioAssay AID1347131 (National Center for Advancing Translational Sciences (NCATS), 2019).
About 2,000 (0.49%) of roughly 410,000 compounds were called active. The inconclusive results got no clear call from the source; some entries with a clear call stand among them for comparison. Calls follow the shape of the full dose curve; tested in HEK293 reporter line. Potencies beside an inconclusive call are fits to weak or partial responses and may not hold up.

assay: qHTS Assay for Foot and Mouth Disease Virus Antivirals: Primary Screen against the MLPCN compound library; settings: FMDV antiviral cell-based qHTS; activity, negative = inhibition: at 57.9 µM (top of the series); also: nearly all actives have a fitted effect of over 55% in size
Potency is read from the fitted curve at half-maximal effect.

Row | SMILES | Potency | activity, negative = inhibition
1 | CCOC(=O)C1(C(=O)OCC)COC(=O)C1CN1Cc2cc3ccccc3nc2C1 (stereo not drawn) | inconclusive: 28.2 µM [inhibitor, partial curve, poor fit] | –
2 | CCn1nc(C)cc1-c1nnc(Sc2ncc([N+](=O)[O-])s2)n1C | inconclusive: 28.2 µM [inhibitor, partial curve, poor fit] | –
3 | COc1ccc(-c2noc(CN(C(=O)c3cccs3)C(C)C)n2)cc1 | – | inactive: -31%
4 | COc1cc(C2CC(=O)c3c([nH]c(C(=O)OCc4ccc(C)cc4)c3C)C2)cc(OC)c1OC (stereo not drawn) | inconclusive: 14.1 µM [inhibitor, partial curve, poor fit] | –
5 | O=C(Nc1ccc(N2CCN(c3ccc(C(F)(F)F)cn3)CC2)nc1)c1cccs1 | – | inactive: -22%
6 | Cc1nc2ncnn2c(N2CCCC(C(=O)Nc3ccc4c(c3)CCC4)C2)c1C (stereo not drawn) | inconclusive: 25.1 µM [inhibitor, partial curve, poor fit] | –
7 | O=C(Nc1cccc(O)c1)c1cc(-c2ccc3c(c2)OCO3)on1 | inconclusive: 11.2 µM [inhibitor, partial curve, poor fit] | –
8 | O=C(NCCc1ccccc1)c1ccc2nccnc2c1 | inconclusive: 11.2 µM [inhibitor, single point] | –
9 | Cc1ccc(CC2CC(=O)N(CCc3ccc4c(c3)OCO4)C2=O)cc1 (stereo not drawn) | – | inconclusive: -31.9% [inhibitor]
10 | COc1cccc(CNc2nc3cc(-c4cccc(Cl)c4)sc3c(=O)n2C)c1 | inconclusive: 3.55 µM [inhibitor, full curve] | –
11 | O=c1[nH]c(=S)[nH]c(O)c1/C=C1/C=c2ccccc2=N1 | inconclusive: 25.1 µM [inhibitor, partial curve, poor fit] | –
12 | Nc1nc(Cl)cc(N2CCC(c3cc(-c4ccc(Cl)cc4)n[nH]3)CC2)n1 | inconclusive: 15.8 µM [inhibitor, partial curve, poor fit] | –
13 | C[C@H](NC(=O)c1nc[nH]c1C(=O)NC(c1ccccc1)c1ccccc1)C(=O)OC(C)(C)C | inconclusive: 31.6 µM [inhibitor, partial curve, poor fit] | –
14 | CNc1nc(-c2ccc3c(c2)CCN3S(=O)(=O)c2ccccc2)c(C)s1 | – | inactive: -30.4%
15 | C=CCOc1ccc(/C=C2/C(=O)ON=C2C)cc1OCC | active: 31.6 µM | –
16 | CCN(CC)C(=O)c1cccc(-c2csc(C(C)(O)c3ccncc3)n2)c1 (stereo not drawn) | inconclusive: 25.1 µM [inhibitor, partial curve, poor fit] | –
17 | CCCc1nc(N2CCN(S(=O)(=O)c3ccc(Cl)cc3)CC2)c2c(C)c(C)sc2n1 | inconclusive: 25.1 µM [inhibitor, partial curve, poor fit] | –
18 | Cc1cccc(CS(=O)(=O)c2ncc(Cl)c(C(=O)Nc3nc4ccc(F)cc4s3)n2)c1 | inconclusive: 15.8 µM [inhibitor, partial curve, poor fit] | –
19 | O=C(CCS(=O)(=O)c1ccccc1)Nc1cccc(-c2nc3ccccc3s2)c1 | inconclusive: 39.8 µM [inhibitor, single point] | –

Looked up one by one from above (two):
Row | SMILES | Potency | activity, negative = inhibition
8 | O=C(NCCc1ccccc1)c1ccc2nccnc2c1 | inconclusive: 11.2 µM [inhibitor, single point] | –
2 | CCn1nc(C)cc1-c1nnc(Sc2ncc([N+](=O)[O-])s2)n1C | inconclusive: 28.2 µM [inhibitor, partial curve, poor fit] | –

The results go on.

Row | SMILES | Potency | activity, negative = inhibition
20 | O=C(CCl)N(Cc1cccc([N+](=O)[O-])c1)c1cccc(Cl)c1 | inconclusive: 28.2 µM [inhibitor, partial curve, poor fit] | –
21 | CCc1ccc(C2CC(c3cccc(OC)c3)n3nc(N)nc3N2)cc1 (stereo not drawn) | – | inactive: -34.8%
22 | Cc1ccccc1OCc1n(CC(=O)OC2CC(C)CCC2C(C)C)c2ccccc2[n+]1C (stereo not drawn) | active: 17.8 µM | –
23 | CC(=O)Nc1ccc(-c2csc(Nc3ccccn3)n2)cc1 | inconclusive: 20 µM [inhibitor, single point] | –
24 | Cc1cc(=O)n2nc(N3CCCC3C(=O)NCCCN3CCCCC3)sc2n1 (stereo not drawn) | inconclusive: 2.82 µM [inhibitor, full curve] | –
25 | Cc1cc(C)n2c(Nc3c(C)cccc3C)c(-c3ccccn3)nc2n1 | – | inactive: -37.5%
26 | CCOC(=O)N1CCN(Cc2ccc3c(c2)CN(C(=O)c2cc(-c4ccccc4)no2)CCO3)CC1 | inconclusive: 25.1 µM [inhibitor, partial curve, poor fit] | –
27 | CCN(c1ccc(OC)cc1)S(=O)(=O)c1nnc(NC(=O)COc2ccc(F)cc2)s1 | inconclusive: 8.91 µM [inhibitor, partial curve] | –
28 | O=C(Nc1ccc(F)cc1F)c1ccc2c(c1)[nH]c(=O)n2Cc1ccc(F)cc1 | – | inactive: -32.6%
29 | N#CCSc1nc(Nc2ccc3c(c2)OCO3)c2ccccc2n1 | inconclusive: 22.4 µM [inhibitor, partial curve, poor fit] | –
30 | COc1ccc(N2CCN(c3nc(NCCc4ccc(OC)c(OC)c4)nc(OC)n3)CC2)cc1 | inconclusive: 25.1 µM [inhibitor, partial curve, poor fit] | –
31 | Cn1c(=O)[nH]c(=O)c2c1nc(NCc1ccccc1)n2CCCc1ccccc1 | – | inactive: -45.3%
32 | CCCc1cc(N2CCN(C(=O)c3ccco3)CC2)n2c(nc3ccccc32)c1C#N | inconclusive: 14.1 µM [inhibitor, partial curve, poor fit] | –
33 | Cc1cc(C=O)c(C)n1-c1ccc(NC2CCCCC2)c([N+](=O)[O-])c1 | inconclusive: 31.6 µM [inhibitor, single point] | –
34 | C[C@@H]1CN([C@@H](C)CO)C(=O)c2cccc(NC(=O)C3CCCCC3)c2O[C@@H]1CN(C)Cc1ccc(Cl)c(Cl)c1 | inconclusive: 14.1 µM [inhibitor, partial curve] | –
35 | COc1ccc(CN(C)C(=O)c2cccc(NC(=O)CC3SC(N4CCCCC4)=NC3=O)c2)c(OC)c1 (stereo not drawn) | inconclusive: 20 µM [inhibitor, partial curve, poor fit] | –
36 | COc1cccc(C(=O)Nc2nc3c(s2)CCCC3)c1 | inconclusive: 25.1 µM [inhibitor, single point] | –
37 | CC1(C)C(=O)NC2=C1C(=O)C(=O)c1ccccc12 | inconclusive: 14.1 µM [inhibitor, partial curve, poor fit] | –
38 | CCN(CC)P(=O)(NC(=O)C(Cl)(Cl)Cl)N(CC)CC.[Cl-].[Cl-].[Cl-].[Nd+3] | inconclusive: 12.6 µM [inhibitor, partial curve] | –
